# Laboratory results published in patent US9562899B2, “Method of detecting OXA-048 carbapenemase producing bacteria” (BIOMÉRIEUX, priority 2012, dated 2017).
# Test system: strains producing an OXA-48 carbapenemase
# Experiment: Detection of strains producing an OXA-48 carbapenemase (Example 1)
# Format: cell-based, Enterobacteriaceae
# Settings: temocillin concentration of 200 mg/l
structure (smiles),measurement,value
CO[C@@]1(NC(=O)C(C(=O)O)c2ccsc2)C(=O)N2[C@@H](C(=O)O)C(C)(C)S[C@@H]21 (some centres unmarked) [temocillin],Sensitivity,93.8%
same,Specificity,92.8%
